Experimental data reported in patent US20190212344A1, “BIOMARKERS FOR USE IN DETERMINING RESPONSE TO TREATMENT OF NEURODEGENERATION DISEASE” (The Board of Trustees of the Leland Stanford Junior …, priority 2016, published 2019).
Entries after “also recorded” stand apart in the source; their conditions may differ. Part of at least one peptide drawing is inferred or uncertain, most often the ends. Residues, ends and D or L forms follow the SMILES beside them.

What was measured:
mtND2 = mtND2 (mtDNA) levels in mouse plasma by real-time PCR; assay type: in vivo
8-OHdG = assay: DNA damage product 8-OHdG in urine by ELISA, normalized to creatinine; assay type: in vivo, mouse; conditions: 13 weeks old R6/2 mice, 8-week P110 treatment
mitochondrial fission = conditions: several models of neurodegeneration disease and rat heart ischemia/reperfusion; without affecting basal (physiological) fission; cited from earlier work
R6/2 mice = assay: Survival of R6/2 and WT mice during P110 treatment; assay type: in vivo, mouse
Protocol: All the experiments were in accordance with protocols approved by the Institutional Animal Care and Use Committee of Stanford University and were performed based on the National Institutes of Health Guide for the Care and Use of Laboratory Animals. Hemizygous R6/2 HD mice and their wild-type littermates (WT) were purchased from Jackson Laboratories and shipped to us at 5 weeks of age. The animals used in the P110 treatment study were implanted with a 28-day osmotic pump (Alzet, Cupertino Calif.) containing TAT47-57 carrier control peptide or P110-TAT47-57 (P110 peptide), which delivered to the mice at a rate of 3 mg/Kg/day, as described before. The first pump was implanted at 5 weeks of age and replaced once, after 4 weeks. For the intermittent treatment study, TAT or P110 were delivered as above, using a 1-week pump. After 3 weeks with no treatment, a new pump was implanted for another week of treatment, and mice were sacrificed three weeks later, at the age of 13 weeks.
The overall survival during the study period was recorded and the remaining mice were sacrificed when they reached 13 weeks. All the behavior, survival tests and analyses were conducted by an experimenter who was blind to genotypes and drug groups.
The results are presented as mean±SE. Statistical analysis was assessed by unpaired Student's t test and 1-way ANOVA using GraphPad Prism (GraphPad Software, Inc, La Jolla, Calif.). The standard Mantel Cox log-rank test was used to assess survival. Repeated measures two-way ANOVA with Bonferroni post hoc test was used for evaluation of the parameters in rotating rod test and DMP-DM. All tests were performed in a blinded way. p<0.05 was considered statistically significant.

TNFα = assay: Plasma TNFα by ELISA; assay type: in vivo, mouse; conditions: 13 weeks old R6/2 mice, P110 for 8 weeks
[1] = test system: HD patient-derived neuronal cultures; conditions: cited from earlier work
4-HNE adducts = assay: 4-HNE adduct staining in peripheral tissues; assay type: in vivo, mouse; conditions: HD mice, heading statement only
IL-6 = assay: Plasma IL-6 by ELISA; assay type: in vivo, mouse; conditions: 13 weeks old R6/2 mice, P110 for 8 weeks
[2] = test system: HD transgenic mouse brains; conditions: cited from earlier work

CC(C)C[C@H](NC(=O)[C@H](CC(=O)O)NC(=O)CNC(=O)CNC(=O)[C@H](CCCNC(=N)N)NC(=O)[C@H](CCCNC(=N)N)NC(=O)[C@H](CCCNC(=N)N)NC(=O)[C@H](CCC(N)=O)NC(=O)[C@H](CCCNC(=N)N)NC(=O)[C@H](CCCNC(=N)N)NC(=O)[C@H](CCCCN)NC(=O)[C@H](CCCCN)NC(=O)[C@H](CCCNC(=N)N)NC(=O)CNC(=O)[C@@H](N)Cc1ccc(O)cc1)C(=O)N[C@@H](CC(C)C)C(=O)N1CCC[C@H]1C(=O)N[C@@H](CCCNC(=N)N)C(=O)NCC(=O)N[C@@H](CO)C(=O)O [P110] (H-YGRKKRRQRRRGGDLLPRGS-OH)
increase of mtND2 levels in plasma (mtND2; 13 week old R6/2 mice, P110 3 mg/Kg/day subcutaneous osmotic pump for 8 weeks, back to WT levels): two folds
increase of mtND2 levels in plasma relative to TAT-treated R6/2 mice (mtND2; R6/2 mice, P110 for only one week at 8 weeks old): two folds; also recorded: increased
increase of mtND2 levels in plasma (mtND2; R6/2 mice, intermittent P110 (1 week 3 mg/Kg/day, 3 weeks no treatment, repeated twice, 8 weeks), close to wild type levels): two folds
8-OHdG levels in urine (8-OHdG): decreased the levels of 8-OHdG to wild type levels; also recorded: lowered to WT mouse levels; also recorded: normalized
excessive mitochondrial fission (mitochondrial fission): inhibits excessive mitochondrial fission
survival of R6/2 mice (R6/2 mice; P110 administered for 8 weeks): increased the survival
mice died at the age of 13 weeks (R6/2 mice; R6/2 mice, P110 for 8 weeks (sustained), TAT: 4 out of 10): 2 mice out of 10
mice died at 13 weeks old (R6/2 mice; R6/2 mice, intermittent P110 over 8 weeks, TAT: 4 out of 10): 0 out of 10
survival of R6/2 mice (R6/2 mice; intermittent P110 treatment, p=0.0238): significantly increased
TNFα levels in plasma (TNFα): reduced their levels back to the levels of WT mice; also recorded: normal
neuronal cell death [1]: reduced neuronal cell death
levels of 4-HNE adducts in peripheral tissues (4-HNE adducts): Reduces the Levels
IL-6 levels in plasma (IL-6): reduced their levels back to the levels of WT mice; also recorded: normal
neuronal cell death [2]: reduced neuronal cell death
